Source: article PMC12540671
These are yes or no findings as the source states them, for the method shown. For some of these results: Binding seen in cells or lysates may run through a third protein. Some results given as binding are weak or reduced against the parent protein; the word gives no strength.

Protein sequences, listed by entry. Tags and fused reporters are not part of them. Lines headed by an entry give the natural chain unless they say otherwise; changes in a name come on top.
UniProt Q62388: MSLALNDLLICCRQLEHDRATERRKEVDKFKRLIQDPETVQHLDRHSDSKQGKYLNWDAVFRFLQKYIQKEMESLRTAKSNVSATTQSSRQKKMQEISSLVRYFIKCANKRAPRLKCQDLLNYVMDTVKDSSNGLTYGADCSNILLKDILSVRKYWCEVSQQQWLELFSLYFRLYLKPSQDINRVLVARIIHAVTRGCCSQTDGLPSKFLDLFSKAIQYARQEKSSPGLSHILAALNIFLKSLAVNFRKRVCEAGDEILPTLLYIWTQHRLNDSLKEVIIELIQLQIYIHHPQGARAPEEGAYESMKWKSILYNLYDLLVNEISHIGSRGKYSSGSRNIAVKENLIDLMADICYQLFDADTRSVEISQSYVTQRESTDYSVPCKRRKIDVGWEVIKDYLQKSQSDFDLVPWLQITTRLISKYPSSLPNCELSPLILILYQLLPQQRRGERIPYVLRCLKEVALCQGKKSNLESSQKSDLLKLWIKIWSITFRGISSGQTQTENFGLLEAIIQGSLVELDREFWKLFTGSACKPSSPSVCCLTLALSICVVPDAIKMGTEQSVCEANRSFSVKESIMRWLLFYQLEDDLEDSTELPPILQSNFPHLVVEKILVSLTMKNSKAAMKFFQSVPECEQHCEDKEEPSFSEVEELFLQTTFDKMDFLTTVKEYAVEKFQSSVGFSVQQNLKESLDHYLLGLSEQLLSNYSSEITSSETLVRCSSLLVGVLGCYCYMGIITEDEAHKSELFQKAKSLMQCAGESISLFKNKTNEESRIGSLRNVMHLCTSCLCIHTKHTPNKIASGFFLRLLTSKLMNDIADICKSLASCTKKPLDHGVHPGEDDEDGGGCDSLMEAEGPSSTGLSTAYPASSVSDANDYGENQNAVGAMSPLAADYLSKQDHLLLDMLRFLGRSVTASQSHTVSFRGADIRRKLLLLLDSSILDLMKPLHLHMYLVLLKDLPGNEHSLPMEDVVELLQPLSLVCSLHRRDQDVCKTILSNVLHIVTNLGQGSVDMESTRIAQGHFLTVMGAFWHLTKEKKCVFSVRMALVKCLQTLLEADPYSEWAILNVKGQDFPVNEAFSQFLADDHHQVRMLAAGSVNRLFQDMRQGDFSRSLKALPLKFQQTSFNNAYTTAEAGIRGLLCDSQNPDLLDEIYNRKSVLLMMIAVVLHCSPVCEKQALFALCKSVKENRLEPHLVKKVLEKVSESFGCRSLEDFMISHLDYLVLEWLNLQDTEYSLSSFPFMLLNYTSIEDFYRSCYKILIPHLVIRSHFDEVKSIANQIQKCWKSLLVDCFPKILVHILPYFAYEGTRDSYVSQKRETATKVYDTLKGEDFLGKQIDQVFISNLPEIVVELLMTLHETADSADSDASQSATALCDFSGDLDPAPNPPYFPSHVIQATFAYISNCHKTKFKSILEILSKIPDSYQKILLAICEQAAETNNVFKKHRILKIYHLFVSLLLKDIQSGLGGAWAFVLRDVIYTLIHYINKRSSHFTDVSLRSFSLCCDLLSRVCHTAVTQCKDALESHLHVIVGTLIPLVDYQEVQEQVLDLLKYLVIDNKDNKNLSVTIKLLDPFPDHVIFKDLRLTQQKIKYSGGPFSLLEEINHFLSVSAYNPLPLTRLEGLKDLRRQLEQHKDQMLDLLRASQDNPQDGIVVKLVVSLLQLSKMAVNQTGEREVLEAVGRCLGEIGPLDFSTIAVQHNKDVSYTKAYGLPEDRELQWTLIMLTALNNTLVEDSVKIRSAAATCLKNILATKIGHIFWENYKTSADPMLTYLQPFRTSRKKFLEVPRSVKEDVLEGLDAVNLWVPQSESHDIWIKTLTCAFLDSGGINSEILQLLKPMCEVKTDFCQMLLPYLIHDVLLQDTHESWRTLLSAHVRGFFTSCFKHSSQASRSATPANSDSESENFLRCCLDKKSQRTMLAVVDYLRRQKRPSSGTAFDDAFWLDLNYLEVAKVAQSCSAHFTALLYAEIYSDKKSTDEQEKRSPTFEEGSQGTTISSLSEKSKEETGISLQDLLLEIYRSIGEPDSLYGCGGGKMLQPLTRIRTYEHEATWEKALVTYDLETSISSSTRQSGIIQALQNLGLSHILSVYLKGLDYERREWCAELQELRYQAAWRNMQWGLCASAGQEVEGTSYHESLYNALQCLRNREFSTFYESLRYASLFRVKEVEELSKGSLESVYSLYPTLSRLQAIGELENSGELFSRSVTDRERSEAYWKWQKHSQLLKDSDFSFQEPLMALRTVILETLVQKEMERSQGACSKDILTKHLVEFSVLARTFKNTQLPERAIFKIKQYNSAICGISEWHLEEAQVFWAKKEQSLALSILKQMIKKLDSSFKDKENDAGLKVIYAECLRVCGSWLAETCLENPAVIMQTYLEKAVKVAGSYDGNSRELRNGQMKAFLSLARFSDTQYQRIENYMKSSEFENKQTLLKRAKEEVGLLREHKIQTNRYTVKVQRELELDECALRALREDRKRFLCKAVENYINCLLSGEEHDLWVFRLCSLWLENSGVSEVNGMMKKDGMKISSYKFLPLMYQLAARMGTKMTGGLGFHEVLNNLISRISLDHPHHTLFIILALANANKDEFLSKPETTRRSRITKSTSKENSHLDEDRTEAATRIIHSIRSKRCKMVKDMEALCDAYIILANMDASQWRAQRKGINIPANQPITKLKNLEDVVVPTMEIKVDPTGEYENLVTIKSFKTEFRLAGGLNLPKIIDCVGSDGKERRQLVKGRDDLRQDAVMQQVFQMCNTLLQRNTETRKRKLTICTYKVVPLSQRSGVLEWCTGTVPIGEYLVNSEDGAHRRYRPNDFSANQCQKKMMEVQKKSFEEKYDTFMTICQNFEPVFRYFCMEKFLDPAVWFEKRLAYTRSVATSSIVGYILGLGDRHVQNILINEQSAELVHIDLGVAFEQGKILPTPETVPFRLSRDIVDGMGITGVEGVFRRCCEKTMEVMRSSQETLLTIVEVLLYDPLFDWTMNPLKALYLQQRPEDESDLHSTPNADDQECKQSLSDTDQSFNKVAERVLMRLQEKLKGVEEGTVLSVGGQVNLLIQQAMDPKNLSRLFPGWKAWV
UniProt Q61221: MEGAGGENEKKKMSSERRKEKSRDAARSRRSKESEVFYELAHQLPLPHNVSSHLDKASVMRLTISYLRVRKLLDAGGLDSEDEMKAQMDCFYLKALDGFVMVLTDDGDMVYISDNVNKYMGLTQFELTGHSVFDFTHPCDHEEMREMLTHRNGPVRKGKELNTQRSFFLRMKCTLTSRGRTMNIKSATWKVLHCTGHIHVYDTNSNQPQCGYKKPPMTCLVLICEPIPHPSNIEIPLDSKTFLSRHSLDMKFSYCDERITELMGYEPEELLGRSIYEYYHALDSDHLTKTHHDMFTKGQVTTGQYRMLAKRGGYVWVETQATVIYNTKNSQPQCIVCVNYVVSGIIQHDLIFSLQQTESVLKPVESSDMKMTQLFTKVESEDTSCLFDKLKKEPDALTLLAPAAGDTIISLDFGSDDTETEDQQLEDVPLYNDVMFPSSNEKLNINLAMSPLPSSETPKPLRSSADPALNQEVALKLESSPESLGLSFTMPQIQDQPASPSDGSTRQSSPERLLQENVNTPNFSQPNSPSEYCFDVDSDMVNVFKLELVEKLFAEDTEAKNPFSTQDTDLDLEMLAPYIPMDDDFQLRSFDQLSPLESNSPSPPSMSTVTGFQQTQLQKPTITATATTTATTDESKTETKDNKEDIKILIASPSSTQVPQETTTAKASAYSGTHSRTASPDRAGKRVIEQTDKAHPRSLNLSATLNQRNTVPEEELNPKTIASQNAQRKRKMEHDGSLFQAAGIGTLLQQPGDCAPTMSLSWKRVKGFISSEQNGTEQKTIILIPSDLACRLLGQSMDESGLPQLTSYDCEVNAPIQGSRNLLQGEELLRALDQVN
UniProt O35343: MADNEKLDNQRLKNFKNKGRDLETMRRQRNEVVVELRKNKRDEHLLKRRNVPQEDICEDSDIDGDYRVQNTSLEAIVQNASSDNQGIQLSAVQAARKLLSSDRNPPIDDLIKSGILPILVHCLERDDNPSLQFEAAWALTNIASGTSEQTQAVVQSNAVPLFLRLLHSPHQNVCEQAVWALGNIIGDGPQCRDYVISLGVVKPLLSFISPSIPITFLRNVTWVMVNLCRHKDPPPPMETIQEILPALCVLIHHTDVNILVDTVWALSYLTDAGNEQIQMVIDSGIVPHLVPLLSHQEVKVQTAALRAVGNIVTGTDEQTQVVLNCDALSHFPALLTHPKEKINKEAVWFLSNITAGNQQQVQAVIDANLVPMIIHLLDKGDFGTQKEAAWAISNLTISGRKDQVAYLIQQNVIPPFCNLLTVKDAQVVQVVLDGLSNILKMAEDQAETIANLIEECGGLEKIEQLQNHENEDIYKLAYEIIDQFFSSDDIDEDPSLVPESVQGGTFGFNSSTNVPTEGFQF
UniProt P52480: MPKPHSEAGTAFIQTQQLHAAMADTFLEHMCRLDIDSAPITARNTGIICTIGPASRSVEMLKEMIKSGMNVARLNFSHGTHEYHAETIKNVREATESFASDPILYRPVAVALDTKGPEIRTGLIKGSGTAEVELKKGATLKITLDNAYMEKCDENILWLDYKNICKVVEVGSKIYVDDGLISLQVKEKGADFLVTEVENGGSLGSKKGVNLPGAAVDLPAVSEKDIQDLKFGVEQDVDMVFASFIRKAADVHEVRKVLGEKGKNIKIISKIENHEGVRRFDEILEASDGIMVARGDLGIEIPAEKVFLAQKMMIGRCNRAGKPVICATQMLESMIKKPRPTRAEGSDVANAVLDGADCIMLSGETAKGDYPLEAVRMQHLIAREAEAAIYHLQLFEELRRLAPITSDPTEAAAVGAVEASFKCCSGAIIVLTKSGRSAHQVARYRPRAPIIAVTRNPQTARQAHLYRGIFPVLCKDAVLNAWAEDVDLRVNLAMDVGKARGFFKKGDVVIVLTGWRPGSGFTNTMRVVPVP

Legend:
[1] = biological target: ATM (ataxia-telangiectasia mutated) kinase (mouse (endogenous in cerebellar tissue)) (UniProt Q62388); assay: condition: only with ethyl pyruvate, a scavenger of hydrogen peroxide; non-reducing SDS-PAGE and immunoblot; as a1, glargine together with ethyl pyruvate (scavenger of H2O2)
[2] = biological target: HIF1α (mouse (endogenous in cerebellar tissue)) (UniProt Q61221); assay: co-IP; cerebellar tissue of Atm-WT mice after daily glargine (50 Unit/kg) for 4 weeks; whole cell and subcellular fractionated lysates, immunoblot
[3] = biological target: HIF1α (mouse (endogenous in cerebellar tissue)) (UniProt Q61221); assay: condition: only co-treatment with TEPP-46 (50 mg/kg body weight, daily, 4 weeks); co-IP; as a6, Atm-WT mice given glargine together with TEPP-46 (50 mg/kg, daily, 4 weeks)
[4] = biological target: importin-α3 (mouse (endogenous in cerebellar tissue)) (UniProt O35343); assay: co-IP; ex vivo mouse cerebellar culture, Atm-WT, with or without 100 nM glargine for 2 h; 1 mg lysate (RIPA), precleared with control IgG, Dynabeads Protein G, overnight at 4 °C, immunoblot

## ATM (ataxia-telangiectasia mutated) kinase (from UniProt Q62388 1-3066) (enzyme)
[1]
  binding: no binding

## PKM2 (pyruvate kinase M2) (from UniProt P52480 1-531) (enzyme)
[2]
  binding: binds
[3]
  binding: no binding
[4]
  binding: binds
